Conditions: Eur. Ph. 5.0, section 2.9.15, 100 ml cylinder

In the case of `CC1=C(C(=O)O)N2C(=O)[C@@H](NC(=O)[C@H](N)c3ccccc3)[C@H]2SC1.O` [Example I, cephalexin], the Bulk density is reported as 0.36 g/mL.
For `CC1=C(C(=O)O)N2C(=O)[C@@H](NC(=O)[C@H](N)c3ccccc3)[C@H]2SC1` [Comparative experiment A, cephalexin], the Bulk density was 0.27 g/mL.
